Results on one compound are retold here after paper PMC4102417 (PLoS Neglected Tropical Diseases, 2014).

Series [1] can be described thus: in vitro. The conditions noted are these: mouse, 3T3 fibroblasts, separate assays separated by semicolons, read-out: Mammalian cell CC50. In kind it is cell-based, murine.
For series [2], the system named is 3T3 fibroblast cells. Put plainly: in vitro. It is filed as cell-based, murine. The conditions noted are these: 3T3 fibroblasts, 72 hours; separate assays separated by semicolons; read-out: Mammalian cell CC50.

Each structure is given as a SMILES string. Structures can show the parent of a compound that is named as a salt.

Take `CCCCc1oc2ccccc2c1C(=O)c1cc(I)c(OCCN(CC)CC)c(I)c1` [Amiodarone, (2-{4-[(2-butyl-1-benzofuran-3-yl)carbonyl]-2,6-diiodophenoxy}ethyl)diethylamine hydrochloride]: the half-maximal cytotoxic concentration (CC50) – broadly, the concentration that lowers cell viability or growth by half – at 72 h in series [1] amounted to 12.6 µM. The CC50 in series [2] came to 16.4 µM.
